Where “and” joins values, the source holds several entries; their conditions need not be identical. Equal entries are not always repeated. In all, about 240,000 compounds went through this assay and about 1,300 (0.54%) were called active. Inconclusive results, whose numbers are uncertain, are shown with a selection of clear calls. The call rests on the fitted dose curve; in most records, active means well fitted inhibition curve with a large enough effect; inconclusive means small, poorly fitted or top-dose-only effect; inactive means flat fitted curve, though single readings scatter. Where the call is inconclusive, the potency comes from a doubtful curve fit. Some compounds were tested as several samples or in several runs, with calls that do not always agree.
Each compound was assayed against ATP-dependent DNA helicase Q1 (Homo sapiens) (UniProt P46063) (assay: qHTS Assay for Inhibitors of RecQ-Like Dna Helicase 1 (RECQ1)). Settings: RECQ1 DNA unwinding, red fluorescence kinetic read; series mostly up to 57.3 µM.
Text: Survival of cells and the faithful propagation of the genome depend on elaborate mechanisms of detecting and repairing DNA damage. Treatment of advanced cancer relies on radiation therapy or chemotherapy, which kill cancer cells by causing extensive DNA damage. It is often found, that cancer cells develop resistance to therapy through enhanced activity of DNA repair functions; this has led to an increased interest in developing drugs that interfere with DNA repair, which could sensitize cancer cells to conventional therapy.
This validation qHTS assay pertains to human RECQ1, which is important in resolving abnormal DNA structures formed during replication or homologous recombination. Shutting down the expression of RECQ1 leads to chromosomal instability and higher radiation sensitivity in cultured cells.
The validation assay was a fluorescence quenching based kinetic qHTS for RECQ1 Helicase DNA unwinding. The activity was measured as ATP-dependent separation of a 20-bp DNA duplex extended by 30-nt single-stranded tails (forked duplex). The forked DNA substrate was tagged with rhodamine fluorophore (carboxytetramethyl rhodamine, TAMRA) and BHQ-2 (Black Hole Quencher 2) dark quencher. Strand separation results in an increase in the fluorescence of TAMRA (excitation 525 nm, emission 598 nm). This substrate construct operates in a red-shifted region where very few compound library members have been noted to fluoresce (PubChem AIDs 593 and 594). An additional feature of the assay is the inclusion of 2.5 ug/ml poly (dIdC), to reduce interference by compounds such as DNA intercalators, a major source of false inhibitors.
Opher Gileadi, Structural Genomics Consortium, University of Oxford
Screening Center PI: Austin, C.P.
Screening Center: NIH Chemical Genomics Center [NCGC]
Three uL of reaction buffer (25 mM Tris-HCl (pH 8.0), 5 mM NaCl, 2 mM MgCl2, 1mM DTT, 0.01% Tween- 20, and 2.5 ug/ml poly(dI-dC), including enzyme (50 nM RECQ1T1), were dispensed into a 1536-well Greiner black assay plate via solenoid-valve based nanoliter dispensers. Compounds (23 nl each in columns 5-48) and control (23 nl each in column 2 as dose-response) were transferred via a Kalypsys pintool equipped with a 1536-pin array. The plates were incubated for 15 min at room temperature, and then 1 ul of substrates (200 nM DNA and 2 mM ATP, final concentrations) was added to start the reaction. The plate was transferred into a ViewLux high-throughput CCD imager where the reaction progress was measured in a discontinuous kinetic mode (two reads spaced 2 hours apart, with intermediate room temperature incubation of the covered assay plate) by using standard red-fluorescence optics (excitation filter 525 nm, emission filter 598 nm). Enzyme-free and vehicle (DMSO) controls were included for signal normalization.
Further: nearly all actives have a fitted effect of over 30% in size.
Potency means the concentration at half of the fitted maximal effect.

Amino acid sequences for entries named in this document (tags omitted). A change or cut given only in a name is not applied to a line headed by its entry.
UniProt P46063: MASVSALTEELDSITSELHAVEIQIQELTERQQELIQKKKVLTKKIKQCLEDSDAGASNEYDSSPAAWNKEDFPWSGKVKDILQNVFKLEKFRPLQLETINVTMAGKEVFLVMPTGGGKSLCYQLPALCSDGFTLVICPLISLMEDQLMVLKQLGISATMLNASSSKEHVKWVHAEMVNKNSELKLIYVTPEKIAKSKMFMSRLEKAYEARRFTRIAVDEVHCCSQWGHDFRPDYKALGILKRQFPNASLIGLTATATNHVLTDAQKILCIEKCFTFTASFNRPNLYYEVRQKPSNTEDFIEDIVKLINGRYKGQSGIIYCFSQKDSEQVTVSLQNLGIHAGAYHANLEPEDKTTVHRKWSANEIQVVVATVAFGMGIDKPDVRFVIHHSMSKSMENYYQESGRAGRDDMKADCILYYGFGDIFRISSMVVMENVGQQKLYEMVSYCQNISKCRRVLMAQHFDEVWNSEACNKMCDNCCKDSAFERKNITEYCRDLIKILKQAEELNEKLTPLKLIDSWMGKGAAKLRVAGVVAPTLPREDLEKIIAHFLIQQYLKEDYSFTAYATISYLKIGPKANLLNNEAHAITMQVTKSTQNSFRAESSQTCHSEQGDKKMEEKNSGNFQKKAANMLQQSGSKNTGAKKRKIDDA

| Compound | Potency |
| --- | --- |
| O=C(O)c1ccc(N2C(=O)c3cccc4c(C(=O)O)ccc(c34)C2=O)cc1 | inconclusive: 25.1 µM [inhibitor, single point] |
| CSc1nc(/C=C2\C=Nc3ccccc32)c(O)n1C | inconclusive: 3.98 µM [inhibitor, partial curve] |
| CC(=O)c1ccc(N2C(=O)[C@@H]3[C@H](C2=O)[C@H]2c4ccccc4C=NN2[C@@H]3C(C)=O)cc1 | inconclusive: 39.8 µM [inhibitor, single point] |
| Cc1c(Cl)c([N+](=O)[O-])nn1CC(=O)N1CCCc2ccccc21 | inconclusive: 39.8 µM [inhibitor, single point] |
| COc1ccc(/C=C/C(=O)c2cccs2)c(OC)c1 | inconclusive: 28.2 µM [inhibitor, partial curve] |
| COc1cc(/C=C2/C(=O)NN(c3cccc(C)c3)C2=O)cc([N+](=O)[O-])c1O | inconclusive: 39.8 µM [inhibitor, single point] |
| C[C@](N)(Cc1ccc(O)c(O)c1)C(=O)O | active: 3.55 µM and active: 2.24 µM |
| COc1ccc2nc3cc(Cl)ccc3c(NCCCN3CCN(CCCNc4c5ccc(Cl)cc5nc5ccc(OC)cc45)CC3)c2c1 | inactive |
| C/C(=C\CNc1ncnc2nc[nH]c12)CO | inconclusive: 2.82 µM [inhibitor, full curve, poor fit] |
| COC(=O)/C=C/c1cccc(N(Cc2ccc(-c3ccc(N(C)C)cc3)cc2)C(=O)C2CCCCC2)c1 | inactive |
| CN(CCC#N)C(=O)COC(=O)c1c2c(nc3ccccc13)/C(=C/c1ccco1)CC2 | active: 15.8 µM |
| CC1CCOC(c2coc3ccccc3c2=O)O1 (stereo not drawn) | inactive |
| CN(C)C(=O)c1ccc(-c2cncnc2NCc2cccs2)cc1 | inactive |
| O=C(O)c1cccc(-n2cccc2/C=C2/NC(=O)N(Cc3ccccc3F)C2=O)c1 | inconclusive: 39.8 µM [inhibitor, single point] |
| CCOc1cc(/C=C2\SC(=S)N(Nc3ccccc3)C2=O)ccc1O | active: 25.1 µM |
| CCOC(=O)C1=C(c2ccccc2)N=c2s/c(=C\c3ccc(O)cc3)c(=O)n2C1c1cccs1 (stereo not drawn) | inconclusive: 28.2 µM [inhibitor, single point] |
| COc1cc([N+](=O)[O-])cc(/C=N/NC(=O)CC#N)c1O | inconclusive: 22.4 µM [inhibitor, single point] |
| COc1ccc(/C=N/NC(=O)c2ccc(COc3cccc4cccnc34)cc2)cc1O | inconclusive: 0.562 µM [inhibitor, full curve] |
| N#CC(C#N)=Cc1ccc(OC(=O)c2ccccn2)cc1 | inactive |
| COc1ccc(NC(=O)Cn2nnc(C(=O)NCc3ccc4c(c3)OCO4)c2N)cc1 | inconclusive: 1.41 µM [inhibitor, full curve, poor fit] |
| CCOC(=O)c1ccc(NC(=O)CSc2nc(C)cc(=O)[nH]2)cc1 | inconclusive: 35.5 µM [inhibitor, single point] |
| CC(C)C(=O)Nc1c(O)c2ccccc2[nH]c1=O | inactive |

Reprinted at random: 2 compounds from above.

| Compound | Potency |
| --- | --- |
| CCOC(=O)c1ccc(NC(=O)CSc2nc(C)cc(=O)[nH]2)cc1 | inconclusive: 35.5 µM [inhibitor, single point] |
| O=C(O)c1cccc(-n2cccc2/C=C2/NC(=O)N(Cc3ccccc3F)C2=O)c1 | inconclusive: 39.8 µM [inhibitor, single point] |

More entries:

| Compound | Potency |
| --- | --- |
| Cc1cc2nc3c(=O)[nH]c(=O)nc-3n(C)c2cc1C=O | active: 3.16 µM |
| COC(=O)C(=C/C=C/N1CCOCC1)C(=O)OC | inconclusive: 35.5 µM [inhibitor, single point] |
| O=C(Nc1cc(Cl)cc(Cl)c1)c1coc(=O)c(Br)c1 | inconclusive: 35.5 µM [inhibitor, single point] |
| COc1ccc(S(=O)(=O)N2CN(Cc3ccco3)c3nc4ccccc4nc32)cc1 | active: 35.5 µM |
| O=C(O)c1cc(-c2ccco2)nn1-c1cccc(Cl)c1 | active: 25.1 µM |
| CCOC(=O)N1CCN(c2cc(NCCC(=O)O)c3c4c(onc24)-c2ccccc2C3=O)CC1 | inconclusive: 39.8 µM [inhibitor, single point] |
| Cc1c(NS(=O)(=O)c2ccc(Cl)c(C(=O)OCC(=O)NCc3ccco3)c2)c(=O)n(-c2ccccc2)n1C | inactive |
| Nc1nc2c(ncn2[C@@H]2O[C@H](COP(=O)(O)OP(=O)(O)OP(=O)(O)O)[C@@H](O)C2O)c(=O)[nH]1 (stereo partly drawn) | inactive |
| CSc1ccc(CNc2ccc(Cl)cc2)cc1 | inconclusive: 7.08 µM [inhibitor, single point] |
| COc1ccc(OC)c(NC(=O)CSc2nnc(-c3ccco3)n2-c2ccccc2)c1 | inconclusive: 3.55 µM [inhibitor, single point] |
| CC(C)Cn1c(N)c(C(=O)COC(=O)c2cc(-c3ccco3)nc3ccccc23)c(=O)n(C)c1=O | active: 8.91 µM and active: 20 µM |
| CCOC(=O)C(NC(=O)CCC(=O)Nc1ccc(S(N)(=O)=O)cc1)C(O)c1ccccc1 (stereo not drawn) | inactive |
| CC1(C)CCCC2(C)C3C(O)CC2(C)C(O)C31 (stereo not drawn) | inconclusive: 39.8 µM [inhibitor, single point] |
| CN1C(=O)C(O)(c2sc(N)nc2-c2ccccc2)c2ccccc21 (stereo not drawn) | inconclusive: 8.91 µM [inhibitor, single point] |
| O=C(c1ccco1)[C@@H]1[C@@H]2C(=O)N(c3ccc(F)cc3)C(=O)[C@@H]2[C@H]2C=Cc3ccccc3N21 | inconclusive: 39.8 µM [inhibitor, single point] |
| CCC[C@@H]1CC2=CC(=O)CC[C@]2(C)[C@H]2CC[C@@]3(C)[C@@H](CC[C@@]34CCC(=O)O4)[C@H]12 | inactive |
| CNc1ccc(Br)cc(C(=O)/C=C/c2ccc3c(c2)OCO3)c1=O | inconclusive: 31.6 µM [inhibitor, single point] |
| CCOC(=O)c1cccc(NC(=O)N[C@@H](C)C(=O)OC)c1 | inactive |
| CSc1nsc(SC)c1NC(=O)N1CCCC1 | inconclusive: 6.31 µM [inhibitor, single point] |
| O=C1OCCN1C(=O)[C@H]1[C@H](c2ccc(F)cc2)C(c2ccc(F)cc2)=NN1c1ccccc1 | inconclusive: 28.2 µM [inhibitor, partial curve] |
| Cc1cc(NC(=O)/C=C/c2cccc(F)c2)n(-c2nc3ccccc3[nH]2)n1 | inconclusive: 0.1 µM [inhibitor, full curve, poor fit] |
